Laboratory results from publication PMC8329197, “Compounds targeting OSBPL7 increase ABCA1-dependent cholesterol efflux preserving kidney function in two models of kidney disease” (Nature Communications, 2021).
For part of its entries the source gives two or more results. The list is limited to them. There may be further records. Values given together differ, and nothing given here explains why; they may come from other doses, times, organisms or constructs than stated.

Assays:
OSBPL7 = experiment: Competition with ^3H-Cpd K UV cross-linking to FLAG-tagged OSBPL7 in HEK293 cells (immunoprecipitation, autoradiography); design: concentration or dose not given beside the values; details: single experiments (3 per compound)
human THP1 macrophages = experiment: apoAI-mediated (ABCA1) cholesterol efflux from cholesterol-loaded THP1 macrophages; type: cell-based; details: single experiments (3 per compound)

For `O=C(N[C@@H]1CCCC[C@H]1O)c1cnc(OCC(F)(F)F)c(-c2ccc(Cl)cc2)c1` [Cpd J], the “OSBP7 percentage of inhibition” value (OSBPL7) was 21%, 63%, 37%.
`O=C(Nc1cnc(OCC(F)(F)F)c(-c2ccc(Cl)cc2)c1)c1cccnc1` [Cpd M] was tested, and the “ABCA1 percentage of induction” value (human THP1 macrophages) was 196%, 56%, 86%.
